The values that follow come from the supplement of paper PMC12067093, “Discovery and optimisation of a covalent ligand for TRIM25 and its application to targeted protein ubiquitination” (Chemical Science, 2025).

By UniProt entry, the sequences of proteins in these tests, tags left out. Where a name states a change or a piece, a line headed by the entry shows the natural chain unless it says otherwise.
UniProt Q9NR12, whole entry, looked up: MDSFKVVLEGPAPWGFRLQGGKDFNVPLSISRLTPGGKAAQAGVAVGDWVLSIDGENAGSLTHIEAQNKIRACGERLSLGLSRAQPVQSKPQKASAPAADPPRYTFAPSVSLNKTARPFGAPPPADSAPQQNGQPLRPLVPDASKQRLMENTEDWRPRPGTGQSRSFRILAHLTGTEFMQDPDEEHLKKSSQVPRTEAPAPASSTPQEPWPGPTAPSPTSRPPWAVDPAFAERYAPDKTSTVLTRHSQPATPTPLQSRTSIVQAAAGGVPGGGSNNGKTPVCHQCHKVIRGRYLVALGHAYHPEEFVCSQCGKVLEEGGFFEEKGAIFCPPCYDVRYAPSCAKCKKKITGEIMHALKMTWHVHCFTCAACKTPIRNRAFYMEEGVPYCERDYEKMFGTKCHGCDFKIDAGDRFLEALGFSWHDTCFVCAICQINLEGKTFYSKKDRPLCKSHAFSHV
UniProt O00151: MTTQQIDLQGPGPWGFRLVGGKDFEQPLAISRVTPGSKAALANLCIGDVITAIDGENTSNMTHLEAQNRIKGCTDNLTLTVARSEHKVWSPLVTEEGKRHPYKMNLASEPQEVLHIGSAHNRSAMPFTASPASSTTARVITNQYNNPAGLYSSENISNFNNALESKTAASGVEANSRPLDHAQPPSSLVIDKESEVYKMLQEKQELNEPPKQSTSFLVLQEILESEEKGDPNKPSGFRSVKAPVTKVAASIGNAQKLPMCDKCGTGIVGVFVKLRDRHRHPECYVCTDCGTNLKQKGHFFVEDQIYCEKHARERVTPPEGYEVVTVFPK
UniProt Q96JY6: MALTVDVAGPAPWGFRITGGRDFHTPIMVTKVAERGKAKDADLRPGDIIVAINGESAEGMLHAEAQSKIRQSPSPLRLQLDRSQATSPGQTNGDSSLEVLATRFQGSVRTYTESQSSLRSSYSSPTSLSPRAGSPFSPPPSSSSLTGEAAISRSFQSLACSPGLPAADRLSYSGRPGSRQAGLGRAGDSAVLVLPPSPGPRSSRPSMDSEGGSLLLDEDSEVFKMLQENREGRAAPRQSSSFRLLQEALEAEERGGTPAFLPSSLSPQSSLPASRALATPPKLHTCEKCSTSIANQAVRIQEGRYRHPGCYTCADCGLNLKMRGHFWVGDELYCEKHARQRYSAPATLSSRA
UniProt Q9HBE1: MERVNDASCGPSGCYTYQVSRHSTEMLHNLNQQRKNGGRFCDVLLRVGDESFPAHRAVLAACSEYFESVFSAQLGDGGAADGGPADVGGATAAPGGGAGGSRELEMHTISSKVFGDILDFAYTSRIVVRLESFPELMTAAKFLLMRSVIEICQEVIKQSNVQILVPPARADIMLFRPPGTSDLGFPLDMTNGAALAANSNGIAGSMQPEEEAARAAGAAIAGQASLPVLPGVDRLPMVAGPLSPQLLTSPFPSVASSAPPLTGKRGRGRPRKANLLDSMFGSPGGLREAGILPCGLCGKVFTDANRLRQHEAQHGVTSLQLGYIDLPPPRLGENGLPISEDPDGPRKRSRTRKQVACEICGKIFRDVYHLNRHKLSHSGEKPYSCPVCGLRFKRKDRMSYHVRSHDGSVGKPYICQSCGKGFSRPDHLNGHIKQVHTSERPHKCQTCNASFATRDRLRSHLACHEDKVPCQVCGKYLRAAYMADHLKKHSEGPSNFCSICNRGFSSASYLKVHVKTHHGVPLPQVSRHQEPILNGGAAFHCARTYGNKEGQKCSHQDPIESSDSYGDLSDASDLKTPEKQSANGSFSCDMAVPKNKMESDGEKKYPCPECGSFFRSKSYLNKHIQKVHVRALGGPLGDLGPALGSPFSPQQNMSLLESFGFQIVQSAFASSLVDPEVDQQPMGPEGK
UniProt P49585: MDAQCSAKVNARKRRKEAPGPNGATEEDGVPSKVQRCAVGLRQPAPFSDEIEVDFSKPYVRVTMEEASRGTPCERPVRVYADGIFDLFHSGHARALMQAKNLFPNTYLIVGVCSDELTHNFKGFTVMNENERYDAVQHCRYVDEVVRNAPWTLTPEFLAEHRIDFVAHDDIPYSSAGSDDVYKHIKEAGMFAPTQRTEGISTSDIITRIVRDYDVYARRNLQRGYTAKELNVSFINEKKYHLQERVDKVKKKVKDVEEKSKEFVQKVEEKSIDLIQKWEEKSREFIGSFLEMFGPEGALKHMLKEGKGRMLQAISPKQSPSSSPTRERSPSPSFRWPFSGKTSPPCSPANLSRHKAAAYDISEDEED
UniProt P08559, whole entry, looked up: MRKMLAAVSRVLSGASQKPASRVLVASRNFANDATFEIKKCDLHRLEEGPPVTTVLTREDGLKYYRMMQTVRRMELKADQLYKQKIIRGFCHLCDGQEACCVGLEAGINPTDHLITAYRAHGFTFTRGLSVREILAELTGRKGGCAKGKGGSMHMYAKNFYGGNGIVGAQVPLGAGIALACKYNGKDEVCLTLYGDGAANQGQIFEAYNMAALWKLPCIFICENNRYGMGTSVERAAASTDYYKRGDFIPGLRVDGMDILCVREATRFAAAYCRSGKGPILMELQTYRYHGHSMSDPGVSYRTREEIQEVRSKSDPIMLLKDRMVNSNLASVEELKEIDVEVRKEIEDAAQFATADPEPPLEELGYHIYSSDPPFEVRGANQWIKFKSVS
UniProt O95613: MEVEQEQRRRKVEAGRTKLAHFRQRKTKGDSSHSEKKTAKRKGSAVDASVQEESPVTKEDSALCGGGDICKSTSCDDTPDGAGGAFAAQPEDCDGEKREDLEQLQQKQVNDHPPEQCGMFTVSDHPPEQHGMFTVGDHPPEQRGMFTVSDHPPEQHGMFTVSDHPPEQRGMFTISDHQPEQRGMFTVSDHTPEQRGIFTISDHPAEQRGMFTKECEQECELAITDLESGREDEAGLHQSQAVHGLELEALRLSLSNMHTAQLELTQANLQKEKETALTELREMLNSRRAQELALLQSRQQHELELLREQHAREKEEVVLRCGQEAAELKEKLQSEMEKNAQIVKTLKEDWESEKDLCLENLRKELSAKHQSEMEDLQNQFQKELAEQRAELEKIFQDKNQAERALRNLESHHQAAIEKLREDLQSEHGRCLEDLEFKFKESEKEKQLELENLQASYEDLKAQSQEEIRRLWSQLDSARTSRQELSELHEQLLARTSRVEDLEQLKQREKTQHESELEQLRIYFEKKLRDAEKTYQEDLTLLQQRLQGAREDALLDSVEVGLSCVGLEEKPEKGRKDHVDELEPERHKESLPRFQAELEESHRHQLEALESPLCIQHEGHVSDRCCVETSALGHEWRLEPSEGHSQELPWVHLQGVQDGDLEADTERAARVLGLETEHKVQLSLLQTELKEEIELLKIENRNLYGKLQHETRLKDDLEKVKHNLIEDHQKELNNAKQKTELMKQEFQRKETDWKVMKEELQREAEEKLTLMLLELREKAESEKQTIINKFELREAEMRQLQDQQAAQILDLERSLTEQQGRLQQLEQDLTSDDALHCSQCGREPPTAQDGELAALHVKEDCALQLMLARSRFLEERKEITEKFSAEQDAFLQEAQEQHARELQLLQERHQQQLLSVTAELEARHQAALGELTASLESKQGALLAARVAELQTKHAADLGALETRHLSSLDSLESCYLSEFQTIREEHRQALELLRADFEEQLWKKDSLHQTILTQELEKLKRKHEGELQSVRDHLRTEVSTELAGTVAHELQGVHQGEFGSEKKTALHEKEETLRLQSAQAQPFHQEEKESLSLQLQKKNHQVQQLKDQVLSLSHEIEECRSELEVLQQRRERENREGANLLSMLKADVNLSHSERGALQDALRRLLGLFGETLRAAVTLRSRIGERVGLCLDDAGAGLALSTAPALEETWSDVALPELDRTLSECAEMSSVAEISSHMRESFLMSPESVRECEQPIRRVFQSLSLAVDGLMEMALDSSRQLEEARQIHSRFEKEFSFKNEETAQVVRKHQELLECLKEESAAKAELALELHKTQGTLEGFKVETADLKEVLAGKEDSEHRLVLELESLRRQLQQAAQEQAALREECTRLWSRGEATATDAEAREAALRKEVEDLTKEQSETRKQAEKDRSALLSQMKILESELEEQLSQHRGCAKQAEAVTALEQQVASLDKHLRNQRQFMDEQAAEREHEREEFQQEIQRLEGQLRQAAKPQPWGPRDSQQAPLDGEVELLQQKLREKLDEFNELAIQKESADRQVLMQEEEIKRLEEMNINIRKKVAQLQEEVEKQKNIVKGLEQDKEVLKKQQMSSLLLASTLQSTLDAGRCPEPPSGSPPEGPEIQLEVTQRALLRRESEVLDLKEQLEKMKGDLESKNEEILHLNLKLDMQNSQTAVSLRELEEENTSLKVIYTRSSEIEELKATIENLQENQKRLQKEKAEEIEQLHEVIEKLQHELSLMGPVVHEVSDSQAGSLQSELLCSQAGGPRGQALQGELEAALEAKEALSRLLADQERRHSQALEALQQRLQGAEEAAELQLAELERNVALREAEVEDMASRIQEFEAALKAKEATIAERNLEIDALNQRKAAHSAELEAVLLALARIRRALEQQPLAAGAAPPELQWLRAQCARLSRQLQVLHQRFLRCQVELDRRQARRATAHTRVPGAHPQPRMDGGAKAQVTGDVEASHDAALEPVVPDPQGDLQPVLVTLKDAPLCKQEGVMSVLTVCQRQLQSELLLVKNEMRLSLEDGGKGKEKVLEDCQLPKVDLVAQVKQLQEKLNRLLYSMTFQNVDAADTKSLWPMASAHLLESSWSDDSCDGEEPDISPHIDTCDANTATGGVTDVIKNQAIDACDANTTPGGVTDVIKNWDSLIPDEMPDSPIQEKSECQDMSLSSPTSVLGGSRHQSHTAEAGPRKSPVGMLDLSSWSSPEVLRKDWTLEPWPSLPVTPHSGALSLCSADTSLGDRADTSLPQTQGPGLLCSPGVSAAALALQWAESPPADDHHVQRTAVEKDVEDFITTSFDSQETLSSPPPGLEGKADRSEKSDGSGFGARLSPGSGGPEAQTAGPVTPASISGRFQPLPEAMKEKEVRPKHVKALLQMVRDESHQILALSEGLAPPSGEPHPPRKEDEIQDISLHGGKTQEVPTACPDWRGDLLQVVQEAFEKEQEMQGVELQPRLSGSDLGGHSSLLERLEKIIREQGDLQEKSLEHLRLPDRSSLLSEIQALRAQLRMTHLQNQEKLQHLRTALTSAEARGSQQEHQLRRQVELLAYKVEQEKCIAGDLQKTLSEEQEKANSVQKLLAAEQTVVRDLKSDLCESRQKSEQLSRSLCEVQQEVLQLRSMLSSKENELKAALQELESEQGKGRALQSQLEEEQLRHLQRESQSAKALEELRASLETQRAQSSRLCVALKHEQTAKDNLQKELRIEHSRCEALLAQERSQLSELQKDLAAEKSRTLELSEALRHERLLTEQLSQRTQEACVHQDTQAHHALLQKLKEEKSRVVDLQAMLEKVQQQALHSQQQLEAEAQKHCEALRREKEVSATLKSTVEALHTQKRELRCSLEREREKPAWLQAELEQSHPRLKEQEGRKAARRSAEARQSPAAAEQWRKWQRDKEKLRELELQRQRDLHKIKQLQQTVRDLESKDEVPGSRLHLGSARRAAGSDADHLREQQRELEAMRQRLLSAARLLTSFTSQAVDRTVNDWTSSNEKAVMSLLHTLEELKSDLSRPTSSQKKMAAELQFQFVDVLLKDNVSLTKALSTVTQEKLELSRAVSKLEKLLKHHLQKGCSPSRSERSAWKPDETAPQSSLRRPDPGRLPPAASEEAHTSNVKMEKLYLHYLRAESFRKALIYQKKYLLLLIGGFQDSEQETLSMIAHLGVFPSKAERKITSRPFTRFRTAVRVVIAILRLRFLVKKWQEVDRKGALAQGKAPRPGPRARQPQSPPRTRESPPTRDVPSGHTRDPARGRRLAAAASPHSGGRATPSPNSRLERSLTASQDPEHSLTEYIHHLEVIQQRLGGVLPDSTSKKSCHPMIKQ
UniProt P30101, whole entry, looked up: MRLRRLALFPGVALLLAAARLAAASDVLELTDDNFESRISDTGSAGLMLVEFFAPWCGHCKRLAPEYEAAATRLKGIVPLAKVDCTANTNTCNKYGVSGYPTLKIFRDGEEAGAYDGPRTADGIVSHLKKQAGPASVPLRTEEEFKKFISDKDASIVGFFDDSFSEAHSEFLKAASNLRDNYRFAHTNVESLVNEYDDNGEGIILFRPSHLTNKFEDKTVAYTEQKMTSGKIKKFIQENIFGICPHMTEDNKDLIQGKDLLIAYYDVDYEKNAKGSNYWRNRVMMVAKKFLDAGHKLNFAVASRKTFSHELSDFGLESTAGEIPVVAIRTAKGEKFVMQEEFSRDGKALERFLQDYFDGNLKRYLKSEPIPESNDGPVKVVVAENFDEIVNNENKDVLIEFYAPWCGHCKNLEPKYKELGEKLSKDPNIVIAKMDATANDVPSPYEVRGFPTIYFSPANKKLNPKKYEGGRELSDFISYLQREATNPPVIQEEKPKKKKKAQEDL

Compound in the experiment: CC1Cc2ccccc2N1C(=O)C1CCCN(C1)C(=O)CCl (mixture of isomers) [TRIM25 ligand 11 (diastereomer mixture)]
The experiment is described as follows: probe-labelled cysteine peptide fold change vs DMSO (competition) (log2 fold change); higher = less target engagement (more negative = stronger competition). The settings on record: THP-1, incubation time: 4 h.

The list shows a part of the results.
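Note: competitive chemoproteomic profiling in live THP-1 cells with an iodoacetamide desthiobiotin (IA-DTB) probe, comparing probe-labelled peptide intensities in compound-treated cells against DMSO-treated controls.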

For “PDLIM7_Q9NR12_370_MTWHVHCFTCAACK (UniProt Q9NR12)”, the “probe-labelled cysteine peptide fold change” value is -0.0568 (10 µM) and 0.119 (50 µM).

For the target “PDLIM1_O00151_283+289_HRHPECYVCTDCGTNLK (UniProt O00151)”, the “probe-labelled cysteine peptide fold change” value runs as follows: (10 µM) 0.0514; (50 µM) 0.005.

“PDIA5_Q14554_465_NQDLCQQEAVK (UniProt Q14554)”: the “probe-labelled cysteine peptide fold change” value (10 µM) was -0.0391 and the “probe-labelled cysteine peptide fold change” value (50 µM) was -0.0827.

For the target “PBRM1_Q86U86_1244+1257_DFLSCRPTEIPENDILLCESR (UniProt Q86U86)”, the “probe-labelled cysteine peptide fold change” value is, setting by setting: (10 µM) 0.0435; (50 µM) 0.00111.

Turning to “PDIA6_Q15084_193_NVLDSEDVWMVEFYAPWCGHCK (UniProt Q15084)”, the “probe-labelled cysteine peptide fold change” value is -0.119 (10 µM) and -0.377 (50 µM).

On to “PAXBP1_Q9Y5B6_457_GYVQDLLECFSEK (UniProt Q9Y5B6)”, for which the “probe-labelled cysteine peptide fold change” value runs as follows: (10 µM) 0.0666; (50 µM) 0.156.

With “PARP4_Q9UKK3_1293_LLDLSWTESCKPTATEPLFK (UniProt Q9UKK3)”, the “probe-labelled cysteine peptide fold change” value was -0.133 (10 µM) and -0.101 (50 µM).

Consider “PDLIM2_Q96JY6_334_GHFWVGDELYCEK (UniProt Q96JY6)”, for which the “probe-labelled cysteine peptide fold change” value (10 µM) amounted to 0.0694 and the “probe-labelled cysteine peptide fold change” value (50 µM) is 0.0848.

In the case of “PATZ1_Q9HBE1_297_EAGILPCGLCGK (UniProt Q9HBE1)”, the “probe-labelled cysteine peptide fold change” value was 0.00899 (10 µM) and -0.0723 (50 µM).

For the target “PATZ1_Q9HBE1_610_KYPCPECGSFFR (UniProt Q9HBE1)”, the “probe-labelled cysteine peptide fold change” value by setting is: (10 µM) -0.0973; (50 µM) 0.0311.

In the case of “PDCD6IP_Q8WUM4_512_ECYQSHR (UniProt Q8WUM4)”, the “probe-labelled cysteine peptide fold change” value is 0.0978 (10 µM) and -0.0569 (50 µM).

Turning to “PCYT1A_P49585_139_YDAVQHCR (UniProt P49585)”, the “probe-labelled cysteine peptide fold change” value came out at 0.00461 (10 µM) and 0.0443 (50 µM).

Turning to “PDF_Q9HBH1_68_LVLGPPEPPFSHVCQVGDPVLR (UniProt Q9HBH1)”, the “probe-labelled cysteine peptide fold change” value runs as follows: (10 µM) 0.00596; (50 µM) 0.0851.

Turning to “PDHA1_P08559_181_NFYGGNGIVGAQVPLGAGIALACK (UniProt P08559)”, the “probe-labelled cysteine peptide fold change” value reads like this: (10 µM) 0.183; (50 µM) 0.26.

As to “PCNT_O95613_1252_ECEQPIRR (UniProt O95613)”, the “probe-labelled cysteine peptide fold change” value turned out to be 0.145 (10 µM) and 0.134 (50 µM).

For the target “PCK2_Q16822_417_PWKPGDKEPCAHPNSR (UniProt Q16822)”, the “probe-labelled cysteine peptide fold change” value was -0.0284 (10 µM) and -0.0772 (50 µM).

Consider “PDCD2L_Q9BRP1_191_LQDAVLGAAHPVPPGLPLFLPYYICVADEDDYRDFVNLDHAHSLLR (UniProt Q9BRP1)”, for which the “probe-labelled cysteine peptide fold change” value runs as follows: (10 µM) -0.928; (50 µM) 0.29.

Consider “PDP1_Q9P0J1_132_SAATCLQTR (UniProt Q9P0J1)”, for which the “probe-labelled cysteine peptide fold change” value runs as follows: (10 µM) 0.0209; (50 µM) 0.00661.

Regarding “PDIA3_P30101_85_VDCTANTNTCNK (UniProt P30101)”, the “probe-labelled cysteine peptide fold change” value (10 µM) turned out to be 0.0644 and the “probe-labelled cysteine peptide fold change” value (50 µM) is 0.258.

For the target “PDLIM7_Q9NR12_388_AFYMEEGVPYCERDYEK (UniProt Q9NR12)”, the “probe-labelled cysteine peptide fold change” value (10 µM) was -0.418 and the “probe-labelled cysteine peptide fold change” value (50 µM) was -0.194.
